# Measurements reported in PubChem BioAssay AID686937 (Drosophila RNAi Screening Center, 2013).
# Assay: 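Genes whose loss weakens secretory pathway function in fly cells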 (primary screen)
# Cells: Drosophila S2 cells expressing secreted horseradish peroxidase
# Reagent: long dsRNA against Drosophila genes
# Time to read-out: about 5.5 days (5 days dsRNA, then 12 h reporter induction)
# Treatment: reporter expression induced after 5 days of dsRNA, read 12 h later; inducer not stated
# Measurement: 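Chemiluminescent measurement of peroxidase in the medium 12 h after reporter induction, following 5 days of dsRNA, given as a z-score per plate; higher means more secretion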
# Direction: z-score: higher = more reporter secreted into medium
# In all, the deposit lists about 23,000 reagents; below is an unselected part of those with a known target gene and a result. 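Reduced-secretion tags in replicate 1 do not always agree with the z-scores; no criterion for assigning the tags was given.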 Reagents against one gene are numbered here. A plus sign joins genes that one reagent is predicted to hit. Not all columns of the deposit are shown. Not stated in the record: the amount of reagent.
Target gene,dsRNA no.,"z-score, replicate 1","z-score, replicate 2","z-score, replicate 3"
Mlp84B (GeneID 40849),1,0.26,0.35,
CG42299 + CG42300,1,0.18,0.16,
CG42299 + CG42300,2,0.35,0.37,
sxc (GeneID 35486),1,-1.04,-0.68,
Polr2I (GeneID 41741),1,-6.68,-5.27,
Hsp70Aa + Hsp70Bb + Hsp70Ba + 3 more,1,-0.37,-1.11,
Rab9Db + Rab9D + Rab9Fa + 1 more,1,0.15,0.18,
CG8834 (GeneID 36356),1,0.27,0.32,
CG12998 (GeneID 32710),1,0.33,0.58,
pcm (GeneID 32935),1,0.37,0.03,
trio (GeneID 43974),1,-0.02,0.31,
trio (GeneID 43974),2,0.3,-1.04,
trio (GeneID 43974),3,0.53,0.42,
lz (GeneID 31883),1,0.11,0.4,0.27
lz (GeneID 31883),2,-0.08,-0.03,
by (GeneID 41144),1,0.34,0.2,
CG9706 (GeneID 39876),1,-0.93,-1.08,
temp (GeneID 31212),1,0.32,0.17,
Idgf4 (GeneID 31926),1,0.13,0.09,
CG15368 (GeneID 31861),1,0.25,-0.39,
CG1801 (GeneID 33104),1,0.38,0.55,
CG4806 (GeneID 37948),1,-0.04,-0.33,
CG42676 (GeneID 2768999),1,0.32,0.37,
CG42676 (GeneID 2768999),2,0.23,0.31,
Cyp28d2 (GeneID 33748),1,0.46,0.27,
Mur2B (GeneID 31111),1,0.16,0.29,
Mur2B (GeneID 31111),2,-0.08,0.08,
MCU (GeneID 59223),1,0.49,0.39,
CG9590 (GeneID 41907),1,-0.03,0.26,
CG34273 (GeneID 5740836),1,0.73,0.65,
CG13331 (GeneID 36503),1,0.39,0.42,
CG32204 (GeneID 317913),1,-2.51,-0.31,
CG5096 (GeneID 34410),1,0.42,0.47,
CG18641 (GeneID 33429),1,0.12,0.44,
scrt (GeneID 38469),1,-2.52,-2.22,
CG14314 (GeneID 42179),1,0.28,0.43,
TTLL1A (GeneID 32704),1,0.19,0.25,
CG1648 (GeneID 36009),1,-0.15,0.54,0.45
TTLL3A (GeneID 33947),1,0.35,0.19,
rux (GeneID 31535),1,0.43,0.36,
CG11425 (GeneID 40472),1,0.09,0.37,
Pbp45 (GeneID 41920),1,0.61,0.74,
CG10738 (GeneID 39516),1,0.47,0.46,
eIF5B (GeneID 44261),1,-1.64,-0.7,
eIF5B (GeneID 44261),2,-2.06,-0.74,
mrt (GeneID 43291),1,0.32,-0.09,
Ir52d (GeneID 36716),1,0.15,0.11,
myd (GeneID 42303),1,-0.72,-1.37,
myd (GeneID 42303),2,0.31,0.41,
GstE7 (GeneID 37112),1,0.1,0.34,
Pitslre (GeneID 40292),1,-3.15,-2.06,
CG9875 (GeneID 37698),1,0.4,0.27,
CG42591 (GeneID 8674006),1,0.3,0.42,
RapGAP1 (GeneID 34032),1,0.19,0.45,0.1
RapGAP1 (GeneID 34032),2,0.15,0.33,
RapGAP1 (GeneID 34032),3,0.3,0.23,
RapGAP1 (GeneID 34032),4,0.13,0.29,

Already shown: entries from further up.
Target gene,dsRNA no.,"z-score, replicate 1","z-score, replicate 2","z-score, replicate 3"
CG42299 + CG42300,1,0.18,0.16,
CG42299 + CG42300,2,0.35,0.37,
sxc (GeneID 35486),1,-1.04,-0.68,
Polr2I (GeneID 41741),1,-6.68,-5.27,
Hsp70Aa + Hsp70Bb + Hsp70Ba + 3 more,1,-0.37,-1.11,
Rab9Db + Rab9D + Rab9Fa + 1 more,1,0.15,0.18,
CG8834 (GeneID 36356),1,0.27,0.32,
CG12998 (GeneID 32710),1,0.33,0.58,
pcm (GeneID 32935),1,0.37,0.03,
